The results in this text go back to publication PMC4757822, “Structural and biochemical characterization of an RNA/DNA binding motif in the N-terminal domain of RecQ4 helicases”.

Common to all, as to assay: EMSA
What all share (settings): 20 mM Tris-HCl pH 7.5, 2 mM MgCl2, 50 mM NaCl, 5% glycerol, 1 mM DTT, 5 mM ZnCl2, 0.1 mg/ml BSA, 10 nM probe, 30 min room temperature; 6% native gel in TBE at 4 C; recombinant protein; residues 335-427; protein details: N-terminal 6His-GST (not cleaved); label: 5'-32P on one strand
On the technique in general: Mobility shift assays separate free from complexed probe on a gel.

The target of data set [1] is T1, hUpZnK m1 C403A,N406A (human) (UniProt O94761).
T1 sequence (looked up): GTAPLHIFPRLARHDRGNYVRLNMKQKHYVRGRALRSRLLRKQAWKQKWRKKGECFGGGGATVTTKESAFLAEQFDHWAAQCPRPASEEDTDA

For data set [2], the target named is T2, hUpZnK m2 H411A,C416A (human) (UniProt O94761).
T2 sequence (looked up): T1 sequence (looked up) with A69C, A72N, H77A, C82A

For another data set, the target named is T3, hUpZnK m3 N406C (human) (UniProt O94761).
T3 sequence (looked up): T1 sequence (looked up) with A69C, A72C

Positions count from the first letter of the chain named. A weaker result is weaker than the reference pair of the same experiment. Protein sequences can lack the tags named with them. The exact form of at least one protein or probe is not confirmed. At least one verdict rests on a figure or table, not on a statement of the authors.

Turning to “GTAGTGCATGTACACCACACTCTTTTTTTTTTTTTTT / TTTTTTTTTTTTTTTGAGTGTGGTGTACATGCACTAC [forkDNA (A1+A2)]”, the binding result (in data set [1]; in data set [2]; with hUpZnK m3 N406C (human)) was “binds more weakly” each time.
As to “GUAGUGCAUGUACACCACACUCUUUUUUUUUUUUUUU / UUUUUUUUUUUUUUUGAGUGUGGUGUACAUGCACUAC [forkRNA (A3+A4)]”, the binding result (in data set [1]; in data set [2]; with hUpZnK m3 N406C (human)) was “binds” throughout.
